In patent US20160367623A1, “AGONISTS OF GUANYLATE CYCLASE USEFUL FOR THE TREATMENT OF GASTROINTESTINAL DISORDERS, INFLAMMATION, CANCER AND OTHER DISORDERS” (priority 2015, published 2016):
The source gives many values for each of these; only a part stands here.

Legend:
Format in all cases: in vivo, human
[1] = tested on: patients with chronic idiopathic constipation (CIC); test: Second phase 3 CIC trial: CSBM weekly responders by week; conditions: All Randomized (includes Duplicate Patients), MRA
From the text: Both trials include a two-week pre-treatment baseline period, a 12-week treatment period, and a two-week post-treatment period. The phase 3 CIC program was designed to support regulatory submission in the U. S.
The primary endpoint for both trials is the proportion of durable overall responders (%), which is the current regulatory endpoint required for U.S. approval in CIC. The FDA has defined a durable overall responder as a patient who fulfills both ≧3 complete spontaneous bowel movements (CSBMs) per week plus an increase of ≧1 CSBM from baseline in the same week, for 9 out of the 12 treatment weeks. In addition, the same patient must be an overall responder for at least 3 of the last 4 treatment weeks in order to be considered a durable overall responder.
Patients were selected using Rome 3 criteria modified for CIC and had (1) fewer than 3 defecations per week, (2) loose stools occurring rarely without laxatives, (3) inadequate criteria for irritable bowel syndrome with constipation (IBS-C), and (4) at least two of the following applied to at least 25% of defecations: (a) straining during evacuation, (b) lumpy or hard stools, (c) sensation of anorectal obstruction or blockage. Rome 3 requires patients to fulfill the criteria for the last 3 months with symptom onset at least 6 months prior to diagnosis.

[2] = tested on: patients with chronic idiopathic constipation (CIC); test: Second phase 3 CIC trial: change from baseline in CSBMs/week; conditions: All Randomized (includes Duplicate Patients)
[3] = tested on: patients with chronic idiopathic constipation (CIC); test: Second phase 3 CIC trial: change from baseline in stool consistency (BSFS); conditions: All Randomized (includes Duplicate Patients)

Substance: Asn^1-Asp^2-Glu^3-Cys^4-Glu^5-Leu^6-Cys^7-Val^8-Asn^9-Val^10-Ala^11-Cys^12-Thr^13-Gly^14-Cys^15-Leu^16 (NDECELCVNVACTGCL; disulfides C4-C12, C7-C15) [Plecanatide, uroguanylin analogue, guanylate cyclase-C agonist; (C4:C12, C7:C15) bicycle peptide]
- Non-Responders, n (%) ([1]; Post-Treatment Week 14, 6 mg): 386 (82.0) n (%)
- Non-Responders, n (%) ([1]; Post-Treatment Week 14, Active Combined): 761 (80.9) n (%)
- CSBM Weekly Responders, n (%) ([1]; Week 1, 3 mg): 128 (27.2) n (%)
- CSBM Weekly Responders, n (%) ([1]; Week 1, 6 mg): 120 (25.5) n (%)
- CSBM Weekly Responders, n (%) ([1]; Week 1, Active Combined): 248 (26.4) n (%)
- Non-Responders, n (%) ([1]; Week 2, 3 mg): 350 (74.5) n (%)
- Non-Responders, n (%) ([1]; Week 2, 6 mg): 339 (72.0) n (%)
- Non-Responders, n (%) ([1]; Week 2, Active Combined): 689 (73.2) n (%)
- Non-Responders, n (%) ([1]; Week 3, 3 mg): 335 (71.3) n (%)
- CSBM Weekly Responders, n (%) ([1]; Week 3, 6 mg): 129 (27.4) n (%)
- Non-Responders, n (%) ([1]; Week 3, 6 mg): 342 (72.6) n (%)
- CSBM Weekly Responders, n (%) ([1]; Week 3, Active Combined): 264 (28.1) n (%)
- Non-Responders, n (%) ([1]; Week 3, Active Combined): 677 (71.9) n (%)
- CSBM Weekly Responders, n (%) ([1]; Week 4, 3 mg): 142 (30.2) n (%)
- Non-Responders, n (%) ([1]; Week 4, 3 mg): 328 (69.8) n (%)
- CSBM Weekly Responders, n (%) ([1]; Week 4, 6 mg): 137 (29.1) n (%)
- Non-Responders, n (%) ([1]; Week 4, 6 mg): 334 (70.9) n (%)
- CSBM Weekly Responders, n (%) ([1]; Week 4, Active Combined): 279 (29.6) n (%)
- Non-Responders, n (%) ([1]; Week 4, Active Combined): 662 (70.4) n (%)
- CSBM Weekly Responders, n (%) ([1]; Week 5, 3 mg): 165 (35.1) n (%)
- Non-Responders, n (%) ([1]; Week 5, 3 mg): 305 (64.9) n (%)
- CSBM Weekly Responders, n (%) ([1]; Week 5, 6 mg): 138 (29.3) n (%)
- Non-Responders, n (%) ([1]; Week 5, 6 mg): 333 (70.7) n (%)
- CSBM Weekly Responders, n (%) ([1]; Week 5, Active Combined): 303 (32.2) n (%)
- Non-Responders, n (%) ([1]; Week 5, Active Combined): 638 (67.8) n (%)
- CSBM Weekly Responders, n (%) ([1]; Week 6, 3 mg): 145 (30.9) n (%)
- Non-Responders, n (%) ([1]; Week 6, 3 mg): 325 (69.1) n (%)
- CSBM Weekly Responders, n (%) ([1]; Week 6, 6 mg): 150 (31.8) n (%)
- Non-Responders, n (%) ([1]; Week 6, 6 mg): 321 (68.2) n (%)
- CSBM Weekly Responders, n (%) ([1]; Week 6, Active Combined): 295 (31.3) n (%)
- Non-Responders, n (%) ([1]; Week 6, Active Combined): 646 (68.7) n (%)
- CSBM Weekly Responders, n (%) ([1]; Week 7, 3 mg): 152 (32.3) n (%)
- Non-Responders, n (%) ([1]; Week 7, 3 mg): 318 (67.7) n (%)
- CSBM Weekly Responders, n (%) ([1]; Week 7, 6 mg): 145 (30.8) n (%)
- Non-Responders, n (%) ([1]; Week 7, 6 mg): 326 (69.2) n (%)
- CSBM Weekly Responders, n (%) ([1]; Week 7, Active Combined): 297 (31.6) n (%)
- Non-Responders, n (%) ([1]; Week 7, Active Combined): 644 (68.4) n (%)
- CSBM Weekly Responders, n (%) ([1]; Week 8, 3 mg): 151 (32.1) n (%)
- Non-Responders, n (%) ([1]; Week 8, 3 mg): 319 (67.9) n (%)
- CSBM Weekly Responders, n (%) ([1]; Week 8, 6 mg): 147 (31.2) n (%)
- Non-Responders, n (%) ([1]; Week 8, 6 mg): 324 (68.8) n (%)
- CSBM Weekly Responders, n (%) ([1]; Week 8, Active Combined): 298 (31.7) n (%)
- Non-Responders, n (%) ([1]; Week 8, Active Combined): 643 (68.3) n (%)
- CSBM Weekly Responders, n (%) ([1]; Week 9, 3 mg): 151 (32.1) n (%)
- Non-Responders, n (%) ([1]; Week 9, 3 mg): 319 (67.9) n (%)
- CSBM Weekly Responders, n (%) ([1]; Week 9, 6 mg): 146 (31.0) n (%)
- Non-Responders, n (%) ([1]; Week 9, 6 mg): 325 (69.0) n (%)
- CSBM Weekly Responders, n (%) ([1]; Week 9, Active Combined): 297 (31.6) n (%)
- Non-Responders, n (%) ([1]; Week 9, Active Combined): 644 (68.4) n (%)
- CSBM Weekly Responders, n (%) ([1]; Week 10, 3 mg): 142 (30.2) n (%)
- CSBM Weekly Responders, n (%) ([1]; Week 10, 6 mg): 156 (33.1) n (%)
- CSBM Weekly Responders, n (%) ([1]; Week 10, Active Combined): 298 (31.7) n (%)
- Change from Baseline in CSBMs, Mean (SD) ([2]; 3 mg, Week 5): 2.40 (3.334) CSBMs/week
- Change from Baseline in CSBMs, Mean (SD) ([2]; 3 mg, Week 6): 2.42 (3.524) CSBMs/week
- Change from Baseline in CSBMs, Mean (SD) ([2]; 3 mg, Week 7): 2.41 (3.388) CSBMs/week
- Change from Baseline in CSBMs, Mean (SD) ([2]; 3 mg, Week 8): 2.64 (3.709) CSBMs/week
- Change from Baseline in CSBMs, Mean (SD) ([2]; 3 mg, Week 9): 2.55 (3.428) CSBMs/week
- Change from Baseline in CSBMs, Mean (SD) ([2]; 3 mg, Week 10): 2.59 (3.582) CSBMs/week
- Change from Baseline in CSBMs, Mean (SD) ([2]; 3 mg, Week 11): 2.67 (3.667) CSBMs/week
- Change from Baseline in CSBMs, Mean (SD) ([2]; 3 mg, Week 12): 2.74 (3.758) CSBMs/week
- Change from Baseline in CSBMs, Mean (SD) ([2]; 6 mg, Week 4): 2.05 (3.223) CSBMs/week
- Change from Baseline in CSBMs, Mean (SD) ([2]; 6 mg, Week 5): 1.97 (3.003) CSBMs/week
- Change from Baseline in CSBMs, Mean (SD) ([2]; 6 mg, Week 6): 2.26 (3.359) CSBMs/week
- Change from Baseline in CSBMs, Mean (SD) ([2]; 6 mg, Week 7): 2.33 (3.330) CSBMs/week
- Change from Baseline in CSBMs, Mean (SD) ([2]; 6 mg, Week 8): 2.32 (3.221) CSBMs/week
- Change from Baseline in CSBMs, Mean (SD) ([2]; 6 mg, Week 9): 2.35 (3.152) CSBMs/week
- Change from Baseline in CSBMs, Mean (SD) ([2]; 6 mg, Week 10): 2.47 (3.274) CSBMs/week
- Change from Baseline in CSBMs, Mean (SD) ([2]; 6 mg, Week 11): 2.43 (3.259) CSBMs/week
- Change from Baseline in CSBMs, Mean (SD) ([2]; 6 mg, Week 12): 2.54 (3.382) CSBMs/week
- Change from Baseline in CSBMs, Mean (SD) ([2]; Active Combined, Week 4): 2.13 (3.287) CSBMs/week
- Change from Baseline in CSBMs, Mean (SD) ([2]; Active Combined, Week 5): 2.18 (3.176) CSBMs/week
- Change from Baseline in CSBMs, Mean (SD) ([2]; Active Combined, Week 6): 2.34 (3.440) CSBMs/week
- Change from Baseline in CSBMs, Mean (SD) ([2]; Active Combined, Week 7): 2.37 (3.357) CSBMs/week
- Change from Baseline in CSBMs, Mean (SD) ([2]; Active Combined, Week 8): 2.48 (3.469) CSBMs/week
- Change from Baseline in CSBMs, Mean (SD) ([2]; Active Combined, Week 9): 2.45 (3.288) CSBMs/week
- Change from Baseline in CSBMs, Mean (SD) ([2]; Active Combined, Week 10): 2.52 (3.425) CSBMs/week
- Change from Baseline in CSBMs, Mean (SD) ([2]; Active Combined, Week 11): 2.55 (3.463) CSBMs/week
- Change from Baseline in CSBMs, Mean (SD) ([2]; Active Combined, Week 12): 2.64 (3.570) CSBMs/week
- Change from Baseline in Stool Consistency, Mean (SD) ([3]; 3 mg, Week 5): 1.69 (1.456)
- Change from Baseline in Stool Consistency, Mean (SD) ([3]; 3 mg, Week 6): 1.68 (1.530)
- Change from Baseline in Stool Consistency, Mean (SD) ([3]; 3 mg, Week 7): 1.59 (1.435)
- Change from Baseline in Stool Consistency, Mean (SD) ([3]; 3 mg, Week 8): 1.71 (1.489)
- Change from Baseline in Stool Consistency, Mean (SD) ([3]; 3 mg, Week 9): 1.67 (1.455)
- Change from Baseline in Stool Consistency, Mean (SD) ([3]; 3 mg, Week 10): 1.64 (1.524)
- Change from Baseline in Stool Consistency, Mean (SD) ([3]; 3 mg, Week 11): 1.57 (1.579)
- Change from Baseline in Stool Consistency, Mean (SD) ([3]; 3 mg, Week 12): 1.69 (1.468)
- Change from Baseline in Stool Consistency, Mean (SD) ([3]; 6 mg, Week 4): 1.42 (1.596)
- Change from Baseline in Stool Consistency, Mean (SD) ([3]; 6 mg, Week 5): 1.56 (1.598)
- Change from Baseline in Stool Consistency, Mean (SD) ([3]; 6 mg, Week 6): 1.54 (1.525)
- Change from Baseline in Stool Consistency, Mean (SD) ([3]; 6 mg, Week 7): 1.54 (1.543)
- Change from Baseline in Stool Consistency, Mean (SD) ([3]; 6 mg, Week 8): 1.51 (1.538)
- Change from Baseline in Stool Consistency, Mean (SD) ([3]; 6 mg, Week 9): 1.60 (1.511)
- Change from Baseline in Stool Consistency, Mean (SD) ([3]; 6 mg, Week 10): 1.58 (1.439)
- Change from Baseline in Stool Consistency, Mean (SD) ([3]; 6 mg, Week 11): 1.57 (1.499)
- Change from Baseline in Stool Consistency, Mean (SD) ([3]; 6 mg, Week 12): 1.55 (1.488)
- Change from Baseline in Stool Consistency, Mean (SD) ([3]; Active Combined, Week 4): 1.49 (1.553)
- Change from Baseline in Stool Consistency, Mean (SD) ([3]; Active Combined, Week 5): 1.63 (1.528)
- Change from Baseline in Stool Consistency, Mean (SD) ([3]; Active Combined, Week 6): 1.61 (1.528)
- Change from Baseline in Stool Consistency, Mean (SD) ([3]; Active Combined, Week 7): 1.56 (1.489)
- Change from Baseline in Stool Consistency, Mean (SD) ([3]; Active Combined, Week 8): 1.61 (1.516)
- Change from Baseline in Stool Consistency, Mean (SD) ([3]; Active Combined, Week 9): 1.63 (1.483)
- Change from Baseline in Stool Consistency, Mean (SD) ([3]; Active Combined, Week 10): 1.61 (1.481)
- Change from Baseline in Stool Consistency, Mean (SD) ([3]; Active Combined, Week 11): 1.57 (1.538)
- Change from Baseline in Stool Consistency, Mean (SD) ([3]; Active Combined, Week 12): 1.62 (1.478)
